Measured values as given in patent US20140090094A1, “MODULATORS OF SLC22A7” (BAYER INTELLECTUAL PROPERTY GmbH, priority 2011, published 2014).
For at least one compound, name, drawing or mass did not settle the structure.

Experiments:
OAT2r [1] = target: T1, OAT2r (Rattus norvegicus, UniProt Q5RLM2); experiment: efflux of glutamate from OAT2r-expressing 293 cells (LC-MS/MS); format: cell-based; conditions: 1 mmol/l compound in uptake buffer, 10 min
T1 construct: expressed in transfected cells
T1 sequence (Q5RLM2 1-535): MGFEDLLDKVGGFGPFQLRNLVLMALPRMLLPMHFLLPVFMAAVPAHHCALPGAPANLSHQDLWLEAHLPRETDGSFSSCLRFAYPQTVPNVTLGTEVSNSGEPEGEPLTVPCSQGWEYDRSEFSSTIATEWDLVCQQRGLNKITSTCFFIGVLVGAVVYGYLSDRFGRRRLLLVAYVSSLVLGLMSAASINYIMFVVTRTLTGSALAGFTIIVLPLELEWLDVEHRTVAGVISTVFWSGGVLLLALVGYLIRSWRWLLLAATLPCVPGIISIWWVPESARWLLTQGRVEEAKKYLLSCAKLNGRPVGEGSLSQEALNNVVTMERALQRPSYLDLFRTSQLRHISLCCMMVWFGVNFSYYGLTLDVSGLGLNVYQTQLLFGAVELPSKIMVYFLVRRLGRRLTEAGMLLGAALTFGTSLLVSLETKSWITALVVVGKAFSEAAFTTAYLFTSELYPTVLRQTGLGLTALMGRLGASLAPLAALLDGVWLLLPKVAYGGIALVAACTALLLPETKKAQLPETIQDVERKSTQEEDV
Procedure: To test this hypothesis, 293 cells with or without expression of OAT2r were incubated 10 min in uptake buffer; then, the glutamate content of a buffer sample was determined by LC-MS/MS.
For measurement of solute uptake, cells were grown in surface culture on 60 mm polystyrol dishes (Nunclon 150288, Nunc, Roskilde, Denmark) precoated with 0.1 g/l poly-L-ornithine in 0.15 M boric acid-NaOH, pH 8.4. Cells were used for uptake experiments at a confluence of at least 70%. Uptake was measured at 37° C. Uptake buffer contains 125 mmol/l NaCl, 25 mmol/l HEPES-NaOH pH 7.4, 5.6 mmol/l (+)glucose, 4.8 mmol/l KCl, 1.2 mmol/l KH2PO4, 1.2 mmol/l CaCl2, and 1.2 mmol/l MgSO4. In glutamate efflux experiments, uptake buffer without KH2PO4 was used to avoid MS interference. After preincubation for at least 20 minutes in 4 ml of uptake buffer, the buffer was replaced with 2 ml of substrate in uptake buffer. The total substrate concentration if not indicated otherwise was 0.1 μmol/l for radiotracer assays and 10 μmol/l for unlabeled compounds. Incubation was stopped after 1 min by rinsing the cells four times each with 4 ml ice-cold uptake buffer. Radioactivity was determined, after cell lysis with 0.1% v/v Triton X-100 in 5 mmol/l TRIS-HCl pH 7.4, by liquid scintillation counting. For LCelectrospray ionization-MS/MS analysis, cells were lysed with methanol and stored at −20° C.

OAT2r [2] = target: T1, OAT2r; experiment: trans-stimulation of efflux of 3H-orotic acid via OAT2r; format: cell-based; conditions: 1 mmol/l compound in uptake buffer, 1 min, preloaded cells

N[C@@H](CC(=O)O)C(=O)O [aspartate]
effect on efflux of glutamate (in words) (OAT2r [1]): revealed even higher glutamate efflux | trans-stimulation of efflux of 3H-orotic acid (in words) (OAT2r [2]): rejects
